{"source": "PubChem BioAssay AID1259254 – NCATS, 2017", "purpose": "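Finding genes that stop cells copying their DNA twice in one cycle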 (primary screen)", "cells": "human HCT116 colorectal cancer cells", "reagents": "single siRNA against human genes", "time to read-out": "3 days", "read-out": "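Imaged Hoechst DNA stain sorts each cell into a cycle phase by DNA amount; per plate, G2 fraction set to 0% for non-targeting and 100% for GMNN siRNA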", "reading the numbers": "G2 robust z-score and G2 cells, % of GMNN control: higher = more G2 cells, more excess DNA replication", "call rule": "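Active siRNAs have a G2 robust z of 5 or more median absolute deviations over the median, which in these data means about 38% or higher of GMNN control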", "note": "The whole screen tested about 59,000 reagents; shown is an unselected part. In the full data, about 1,550 (2.6%) got an active call. 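G2 share is only a proxy for re-replication; each gene was hit by three separate siRNAs, and active genes were retested.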 The numbers tell different reagents against one gene apart. Not all columns of the deposit are shown. Reagent sequences are not shown. Not stated in the record: the amount of reagent."}
{"gene": "HMGN2", "reagent": 1, "G2 robust z-score": -0.256, "G2 cells, % of GMNN control": 1.16, "outcome": "inactive"}
{"gene": "HMGN2", "reagent": 2, "G2 robust z-score": 0.948, "G2 cells, % of GMNN control": 9.63, "outcome": "inactive"}
{"gene": "HMGN2", "reagent": 3, "G2 robust z-score": -0.939, "G2 cells, % of GMNN control": -3.64, "outcome": "inactive"}
{"gene": "FAM184A", "reagent": 1, "G2 robust z-score": 0.589, "G2 cells, % of GMNN control": 7.11, "outcome": "inactive"}
{"gene": "FAM184A", "reagent": 2, "G2 robust z-score": -0.445, "G2 cells, % of GMNN control": -0.165, "outcome": "inactive"}
{"gene": "FAM184A", "reagent": 3, "G2 robust z-score": -0.569, "G2 cells, % of GMNN control": -1.04, "outcome": "inactive"}
{"gene": "HACL2", "reagent": 1, "G2 robust z-score": 0.908, "G2 cells, % of GMNN control": 9.35, "outcome": "inactive"}
{"gene": "HACL2", "reagent": 2, "G2 robust z-score": 1.25, "G2 cells, % of GMNN control": 11.8, "outcome": "inactive"}
{"gene": "HACL2", "reagent": 3, "G2 robust z-score": -0.745, "G2 cells, % of GMNN control": -2.28, "outcome": "inactive"}
{"gene": "KLF8", "reagent": 1, "G2 robust z-score": -0.282, "G2 cells, % of GMNN control": 0.984, "outcome": "inactive"}
{"gene": "KLF8", "reagent": 2, "G2 robust z-score": -1.07, "G2 cells, % of GMNN control": -4.53, "outcome": "inactive"}
{"gene": "KLF8", "reagent": 3, "G2 robust z-score": 0.579, "G2 cells, % of GMNN control": 7.04, "outcome": "inactive"}
{"gene": "MPND", "reagent": 1, "G2 robust z-score": -0.498, "G2 cells, % of GMNN control": -0.533, "outcome": "inactive"}
{"gene": "MPND", "reagent": 2, "G2 robust z-score": 0.507, "G2 cells, % of GMNN control": 6.53, "outcome": "inactive"}
{"gene": "MPND", "reagent": 3, "G2 robust z-score": 0.068, "G2 cells, % of GMNN control": 3.45, "outcome": "inactive"}
{"gene": "RPL14P1", "reagent": 1, "G2 robust z-score": 2.82, "G2 cells, % of GMNN control": 22.8, "outcome": "inactive"}
{"gene": "RPL14P1", "reagent": 2, "G2 robust z-score": 1.83, "G2 cells, % of GMNN control": 15.9, "outcome": "inactive"}
{"gene": "RPL14P1", "reagent": 3, "G2 robust z-score": 0.996, "G2 cells, % of GMNN control": 9.98, "outcome": "inactive"}
{"gene": "MAST1", "reagent": 1, "G2 robust z-score": -0.853, "G2 cells, % of GMNN control": -3.03, "outcome": "inactive"}
{"gene": "MAST1", "reagent": 2, "G2 robust z-score": 1.83, "G2 cells, % of GMNN control": 15.8, "outcome": "inactive"}
{"gene": "MAST1", "reagent": 3, "G2 robust z-score": -0.153, "G2 cells, % of GMNN control": 1.89, "outcome": "inactive"}
{"gene": "GLRA1", "reagent": 1, "G2 robust z-score": 3.74, "G2 cells, % of GMNN control": 29.2, "outcome": "inactive"}
{"gene": "GLRA1", "reagent": 2, "G2 robust z-score": -0.103, "G2 cells, % of GMNN control": 2.24, "outcome": "inactive"}
{"gene": "GLRA1", "reagent": 3, "G2 robust z-score": 1.1, "G2 cells, % of GMNN control": 10.7, "outcome": "inactive"}
{"gene": "MESD", "reagent": 1, "G2 robust z-score": 5.52, "G2 cells, % of GMNN control": 41.8, "outcome": "active"}
{"gene": "MESD", "reagent": 2, "G2 robust z-score": 0.416, "G2 cells, % of GMNN control": 5.89, "outcome": "inactive"}
{"gene": "MESD", "reagent": 3, "G2 robust z-score": 3.03, "G2 cells, % of GMNN control": 24.3, "outcome": "inactive"}
{"gene": "WRN", "reagent": 1, "G2 robust z-score": 4.95, "G2 cells, % of GMNN control": 37.8, "outcome": "inactive"}
{"gene": "WRN", "reagent": 2, "G2 robust z-score": 7.17, "G2 cells, % of GMNN control": 53.4, "outcome": "active"}
{"gene": "WRN", "reagent": 3, "G2 robust z-score": 9.29, "G2 cells, % of GMNN control": 68.3, "outcome": "active"}

Reagents above with an active call, once more:
{"gene": "MESD", "reagent": 1, "G2 robust z-score": 5.52, "G2 cells, % of GMNN control": 41.8, "outcome": "active"}
{"gene": "WRN", "reagent": 2, "G2 robust z-score": 7.17, "G2 cells, % of GMNN control": 53.4, "outcome": "active"}
{"gene": "WRN", "reagent": 3, "G2 robust z-score": 9.29, "G2 cells, % of GMNN control": 68.3, "outcome": "active"}
